Measurements as given in publication PMC13507242.
Results are given in words; binding and its absence hold for the method and conditions named. Binding seen in cells or lysates may run through a third protein. Some entries that bind do so weakly or less than the wild type.

Sequences of proteins named here, by UniProt entry; tags and fusion partners are left off. A change or cut given only in a name is not applied to a line headed by its entry. Residues count along the entry.
UniProt Q14114, residues 42-826: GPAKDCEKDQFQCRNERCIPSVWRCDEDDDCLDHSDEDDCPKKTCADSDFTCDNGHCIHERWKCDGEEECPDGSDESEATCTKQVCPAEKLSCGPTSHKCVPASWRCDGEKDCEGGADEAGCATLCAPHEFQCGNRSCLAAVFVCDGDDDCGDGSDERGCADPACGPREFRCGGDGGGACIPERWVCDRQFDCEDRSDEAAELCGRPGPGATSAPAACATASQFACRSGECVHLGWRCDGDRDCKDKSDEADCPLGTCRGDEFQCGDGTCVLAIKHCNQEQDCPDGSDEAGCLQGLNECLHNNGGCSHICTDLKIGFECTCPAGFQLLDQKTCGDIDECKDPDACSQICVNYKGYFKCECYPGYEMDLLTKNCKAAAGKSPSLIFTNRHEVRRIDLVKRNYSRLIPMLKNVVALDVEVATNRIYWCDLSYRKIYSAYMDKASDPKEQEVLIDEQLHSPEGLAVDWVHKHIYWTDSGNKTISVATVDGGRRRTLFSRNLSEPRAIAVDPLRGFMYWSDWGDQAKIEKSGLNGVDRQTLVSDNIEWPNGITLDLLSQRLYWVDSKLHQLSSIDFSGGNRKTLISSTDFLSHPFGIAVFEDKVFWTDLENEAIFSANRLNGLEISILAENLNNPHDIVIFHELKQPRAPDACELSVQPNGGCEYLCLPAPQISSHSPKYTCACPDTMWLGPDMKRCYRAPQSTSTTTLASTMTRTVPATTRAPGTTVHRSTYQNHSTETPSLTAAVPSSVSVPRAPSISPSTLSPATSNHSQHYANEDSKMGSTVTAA
UniProt P20138, residues 18-364: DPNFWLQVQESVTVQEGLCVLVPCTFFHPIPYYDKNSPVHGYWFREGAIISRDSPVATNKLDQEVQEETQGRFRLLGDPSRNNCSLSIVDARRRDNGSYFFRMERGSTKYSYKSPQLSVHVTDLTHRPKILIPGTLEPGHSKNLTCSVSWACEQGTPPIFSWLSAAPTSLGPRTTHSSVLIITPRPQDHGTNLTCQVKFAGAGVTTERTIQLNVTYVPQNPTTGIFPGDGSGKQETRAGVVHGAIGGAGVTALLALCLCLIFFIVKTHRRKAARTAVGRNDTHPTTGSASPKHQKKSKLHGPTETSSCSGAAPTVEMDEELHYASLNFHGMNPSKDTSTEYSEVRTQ
UniProt P02649, residues 19-317: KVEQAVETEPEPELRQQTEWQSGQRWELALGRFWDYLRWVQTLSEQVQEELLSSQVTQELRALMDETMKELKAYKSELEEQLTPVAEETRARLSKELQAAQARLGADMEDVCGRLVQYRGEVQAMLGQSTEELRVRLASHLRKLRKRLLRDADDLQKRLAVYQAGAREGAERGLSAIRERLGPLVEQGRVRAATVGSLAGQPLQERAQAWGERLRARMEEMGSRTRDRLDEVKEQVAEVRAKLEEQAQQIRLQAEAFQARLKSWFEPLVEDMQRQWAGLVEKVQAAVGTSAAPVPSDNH
UniProt P29350: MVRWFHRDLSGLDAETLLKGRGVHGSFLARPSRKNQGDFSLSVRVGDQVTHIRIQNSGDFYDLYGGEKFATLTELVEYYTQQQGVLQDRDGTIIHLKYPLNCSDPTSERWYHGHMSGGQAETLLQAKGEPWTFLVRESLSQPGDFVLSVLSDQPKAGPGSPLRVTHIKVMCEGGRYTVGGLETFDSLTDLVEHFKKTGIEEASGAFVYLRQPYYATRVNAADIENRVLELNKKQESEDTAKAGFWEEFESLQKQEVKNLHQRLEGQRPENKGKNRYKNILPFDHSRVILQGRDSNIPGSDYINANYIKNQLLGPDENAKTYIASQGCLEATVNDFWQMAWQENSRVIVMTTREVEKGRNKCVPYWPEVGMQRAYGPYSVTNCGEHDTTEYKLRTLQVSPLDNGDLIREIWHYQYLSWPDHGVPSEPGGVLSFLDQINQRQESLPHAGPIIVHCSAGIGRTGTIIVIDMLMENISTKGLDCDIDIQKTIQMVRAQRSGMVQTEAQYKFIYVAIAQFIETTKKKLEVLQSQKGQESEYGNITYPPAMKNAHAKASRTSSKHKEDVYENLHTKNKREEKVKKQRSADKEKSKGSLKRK
UniProt P10909: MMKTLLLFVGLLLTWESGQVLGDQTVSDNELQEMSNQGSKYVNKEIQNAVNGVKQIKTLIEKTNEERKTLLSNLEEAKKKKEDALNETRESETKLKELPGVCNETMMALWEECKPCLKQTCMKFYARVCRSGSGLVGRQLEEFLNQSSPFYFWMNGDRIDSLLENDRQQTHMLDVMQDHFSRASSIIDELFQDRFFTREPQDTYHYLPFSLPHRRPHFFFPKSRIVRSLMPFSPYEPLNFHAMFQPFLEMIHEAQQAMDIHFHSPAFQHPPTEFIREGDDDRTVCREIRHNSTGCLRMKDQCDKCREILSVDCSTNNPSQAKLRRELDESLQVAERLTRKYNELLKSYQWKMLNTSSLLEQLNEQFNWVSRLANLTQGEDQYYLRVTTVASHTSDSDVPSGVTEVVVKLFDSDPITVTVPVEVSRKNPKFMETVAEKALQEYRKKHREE

Tests used:
[1] = target: ApoER2 ectodomain fused to His-tag (UniProt Q14114); assay: pull-down; 20 µg His-tagged protein on His-tag Dynabeads, incubated 4 h at 4 °C with culture supernatant with ApoE3 or ApoE4 (3 µg/ml); washes with 500 mM NaCl, 0.5% Triton X-100; blot for ApoE; called co-immunoprecipitation by the paper; only the target purified
[2] = target: endogenous CD33 of human THP-1 cells and human blood monocytes (human (endogenous in THP-1 and blood monocytes)) (UniProt P20138); assay: proximity ligation; flowPLA of CD33 and SHP-1 in permeabilized, fixed human monocytes (rs3865444 CC), untreated or 60 nM CLU for 15 min at 37 °C; read by flow cytometry
[3] = target: endogenous CD33 of human cerebral cortex (human (endogenous in brain tissue)) (UniProt P20138); assay: co-IP; anti-CD33 IP from lysates of AD (n = 3) and control (n = 3) cerebral cortex, blot for CLU
[4] = target: endogenous CD33 of human cerebral cortex (human (endogenous in brain tissue)) (UniProt P20138); assay: proximity ligation; in situ PLA on post-mortem AD brain sections with anti-CD33 and anti-clusterin antibodies (<40 nm)

ApoE3 (ApoE ε3), naturally secreted, fully sialylated (from UniProt P02649 19-317) (ligand)
binding [1]: binds

endogenous SHP-1 (SH2-containing protein tyrosine phosphatase 1) (from UniProt P29350 1-595) (enzyme)
binding [2]: binds

endogenous clusterin (CLU) of human cerebral cortex (from UniProt P10909 23-227; P10909 228-449) (ligand)
binding [3]: binds | binding [4]: binds
